Results reported in the supplement of paper PMC12067093, “Discovery and optimisation of a covalent ligand for TRIM25 and its application to targeted protein ubiquitination” (Chemical Science, 2025).
This is one part of the list.

Each target was assayed with CC1Cc2ccccc2N1C(=O)C1CCCN(C1)C(=O)CCl (mixture of isomers) [TRIM25 ligand 11 (diastereomer mixture)] (assay: probe-labelled cysteine peptide fold change vs DMSO (competition) (log2 fold change); higher = less target engagement (more negative = stronger competition)). Settings: 10 µM; THP-1; incubation time: 4 h.
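Further: competitive chemoproteomic profiling in live THP-1 cells with an iodoacetamide desthiobiotin (IA-DTB) probe, comparing probe-labelled peptide intensities in compound-treated cells against DMSO-treated controls.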

| Target | probe-labelled cysteine peptide fold change |
| --- | --- |
| ZBTB7A_O95365_123_LLEIPAVSHVCADLLDR (UniProt O95365) | -0.168 |
| ZC3HAV1L_Q96H79_169_ILLLQNDPCLLPEVCLLYNK (UniProt Q96H79) | 0.302 |
| XPO5_Q9HAV4_605_HACSSIIK (UniProt Q9HAV4) | -0.06 |
| ZC3H7A_Q8IWR0_149_CSLAVPQDEHVIK (UniProt Q8IWR0) | 0.0297 |
| ZADH2_Q8N4Q0_55_DCPVPLPGDGDLLVR (UniProt Q8N4Q0) | 0.0399 |
| ZC3H14_Q6PJT7_628_AFPNCK (UniProt Q6PJT7) | -0.203 |
| ZBED4_O75132_599_KPTNLGTSCLLR (UniProt O75132) | 0.0177 |
| XPNPEP3_Q9NQH7_503_EMNDIEQICSQAS (UniProt Q9NQH7) | 0.000246 |
| ZC3H7B_Q9UGR2_700_FVCGQCWR (UniProt Q9UGR2) | 0.0801 |
| XPO1_O14980_498_NLNTLCWAIGSISGAMHEEDEK (UniProt O14980) | 0.0218 |
| YAE1_Q9NRH1_143_SITPPSHVVDLLDSIEDMDLCHVVPAEK (UniProt Q9NRH1) | 0.00827 |
| ZCCHC3_Q9NUD5_348_THMSGSCTQDR (UniProt Q9NUD5) | 0.131 |
| XPO7_Q9UIA9_15_ADHVQSLAQLENLCK (UniProt Q9UIA9) | 0.174 |
| ZCCHC3_Q9NUD5_385_GHAFAQCPK (UniProt Q9NUD5) | -0.0776 |
| YDJC_A8MPS7_212_WTDAFVGLSTCGR (UniProt A8MPS7) | -0.155 |
| XRN2_Q9H0D6_21_KYPSIIVNCVEEK (UniProt Q9H0D6) | 0.181 |
| XPO1_O14980_34_LDINLLDNVVNCLYHGEGAQQR (UniProt O14980) | 0.0713 |
| XPO1_O14980_528_DLLGLCEQK (UniProt O14980) | 0.0248 |
| ZC3HAV1_Q7Z2W4_867_FTEGNITYTSPPPQFDSCVDTR (UniProt Q7Z2W4) | -0.0598 |

Some of the entries above in another layout:
Target	probe-labelled cysteine peptide fold change
ZC3H7B_Q9UGR2_700_FVCGQCWR (UniProt Q9UGR2)	0.0801
XPO1_O14980_498_NLNTLCWAIGSISGAMHEEDEK (UniProt O14980)	0.0218

More entries follow:

| Target | probe-labelled cysteine peptide fold change |
| --- | --- |
| ZBTB14_O43829_391_PFVCGSCTK (UniProt O43829) | 0.0479 |
| ZFAND1_Q8TCF1_44_ESHGCPEVTVINER (UniProt Q8TCF1) | -0.0486 |
| ZC3H14_Q6PJT7_607_YWPACK (UniProt Q6PJT7) | -0.0482 |
| YTHDF2_Q9Y5A9_433_YNIWCSTEHGNK (UniProt Q9Y5A9) | 0.0356 |
| ZC3HAV1_Q7Z2W4_721_TSSVSLTATFRPQEDFCFLSSK (UniProt Q7Z2W4) | -0.066 |
| ZC3H11A_O75152_80_LNCAFHHNR (UniProt O75152) | 0.00255 |
| ZCCHC3_Q9NUD5_356+366_CGEEGHLSPYCR (UniProt Q9NUD5) | -0.0896 |
| XPR1_Q9UBH6_62_FFQTCEK (UniProt Q9UBH6) | 0.00807 |
| XRCC5_P13010_157_KCDISLQFFLPFSLGK (UniProt P13010) | -0.0322 |
| ZBTB33_Q86T24_32_GHGLFCDVTVIVEDR (UniProt Q86T24) | 0.256 |
| XRN1_Q8IZH2_1487_LSNGLLVHGPQCHSENEAK (UniProt Q8IZH2) | -0.00266 |
| XPO4_Q9C0E2_54_SPFAVCK (UniProt Q9C0E2) | 0.0641 |
| ZBTB7A_O95365_34_TQGLLCDVVILVEGR (UniProt O95365) | 0.149 |
| YEATS2_Q9ULM3_1173_SEDASCFSAK (UniProt Q9ULM3) | 0.194 |
| ZC3H14_Q6PJT7_641_CLFVHPNCK (UniProt Q6PJT7) | -0.091 |
| ZBTB7B_O15156_23_GSPEDDLIGIPFPDHSSELLSCLNEQR (UniProt O15156) | -0.00361 |
| ZC3H7B_Q9UGR2_91_AACYFTMGLYEK (UniProt Q9UGR2) | -0.235 |
| ZC3H7A_Q8IWR0_572_LLQEHLGEFIFLCEK (UniProt Q8IWR0) | 0.0463 |
| XPO7_Q9UIA9_331_ILENPQSLSDPNNYHEFCR (UniProt Q9UIA9) | 0.0454 |
